The values below come from PubChem BioAssay AID686970 (National Center for Advancing Translational Sciences (NCATS), 2013).

Structures are written as SMILES. Only a part is listed here, and it is no random draw. Inconclusive results are not listed. Calls of active or inactive are those of the source. Calls come from the whole dose curve; as a rule, active = well fitted cell-killing curve with a large enough effect; inconclusive = small, poorly fitted or top-dose-only effect, or effect the other way; inactive = flat fitted curve, though single readings scatter.
Potency is the fitted concentration of half-maximal effect.

This experiment in a line: qHTS for induction of synthetic lethality in tumor cells producing 2HG: qHTS for the HT-1080-NT fibrosarcoma cell line. Note: nearly all actives have a fitted effect of over 55% in size. Particulars: HT-1080-NT fibrosarcoma viability, CellTiter-Glo ATP luminescence, 48 h. An excerpt:
Unbiased genomic sequencing for 22 glioma genomes found recurrent mutation of IDH1 on chromosome 2q33, a gene encoding the cytosolic isoform of IDH1 associated with the tricarboxylic acid cycle (TCA) that catalyzes the oxidative decarboxylation of isocitrate, yielding alpha-ketoglutarate and CO2 via NADP+ to NADPH conversion. Subsequent studies confirmed the recurrent IDH mutations in up to 70% of secondary gliomas and in 10% of AML cases. In addition, the somatic mutation of cancer-associated IDH1 is a point mutation resulting in various amino-acid substituents at Arginine132 (IDH1 R132), a key residue found in the enzyme's active site that when mutated, results in the loss-of-function in metabolizing isocitrate but confers a gain-of-function to produce the oncometabolite 2-hydroxyglutarate (2HG). This in effect defines IDH1 as an oncogene and provides an extraordinary opportunity to discover chemical probes against mutant IDH1 that may translate into much needed new therapies for glioma and AML patients.
This assay aims to perform a synthetic lethal screen for chemical probes specific for 2HG-producing tumor cells using matched paired cell lines (1) HT-1080-NT fibrosarcoma cell line that overproduces 2HG and (2) HT-1080-IDH1KD cell line which has IDH1 expression knocked-down. Desirable compounds are toxic to the NT fibrosarcoma cells but not to the IDH1KD cell line. […]
Suspensions of trypsinized HT-1080-NT cells were dispensed into white, tissue culture-treated, solid 1536-well plates at 5uL/well (750 cells/well final concentration) in RPMI medium supplemented with 5% FBS. […] The plates were measured on a PerkinElmer ViewLux plate reader for luminescent signal (clear filter, 1 sec exp). […]
Concentration-response curves were fitted to the signals arising from the resulting luminescence. The concentration-effect curves were then classified based on curve quality (r2), response magnitude and degree of measured activity, and compounds were subsequently categorized based on their curve class.
Background: Quantitative high-throughput screening tests each substance at several concentrations.
As for `COc1c(O)cc2c(c1OC)-c1ccc(SC)c(=O)cc1C(NC(C)=O)CC2` (stereo not drawn), the Potency is active: 20.6 nM.
In the case of `COc1cc2c(c(OC)c1OC)-c1ccc(SC)c(=O)cc1C(NC(C)=O)CC2` (stereo not drawn) it was active: 9.2 nM.
Consider `COc1c(O)cc2c(c1OC)-c1ccc(OC)c(=O)cc1C(NC(C)=O)CC2` (stereo not drawn), for which the Potency is active: 14.6 nM.
